These are yes or no findings as the source states them, for the method shown. Binding seen in cells or lysates may run through a third protein. Some binding calls cover weakened binding; strength is not graded here.
Experiments:
[1] = target: p85 regulatory subunit of phosphoinositide 3-kinase (PI3K) (human) (UniProt P27986); assay: co-immunoprecipitation with anti-p85 and Western blot
[2] = target: p85 regulatory subunit of phosphoinositide 3-kinase (PI3K) (human) (UniProt P27986); assay: co-immunoprecipitation with anti-p85 from cell lysates, western blot with anti-IRS-1 and anti-p85

Sequences of proteins named here, by UniProt entry; tags and fusion partners are left off. Residues count along the entry.
UniProt P27986, residues 2-724: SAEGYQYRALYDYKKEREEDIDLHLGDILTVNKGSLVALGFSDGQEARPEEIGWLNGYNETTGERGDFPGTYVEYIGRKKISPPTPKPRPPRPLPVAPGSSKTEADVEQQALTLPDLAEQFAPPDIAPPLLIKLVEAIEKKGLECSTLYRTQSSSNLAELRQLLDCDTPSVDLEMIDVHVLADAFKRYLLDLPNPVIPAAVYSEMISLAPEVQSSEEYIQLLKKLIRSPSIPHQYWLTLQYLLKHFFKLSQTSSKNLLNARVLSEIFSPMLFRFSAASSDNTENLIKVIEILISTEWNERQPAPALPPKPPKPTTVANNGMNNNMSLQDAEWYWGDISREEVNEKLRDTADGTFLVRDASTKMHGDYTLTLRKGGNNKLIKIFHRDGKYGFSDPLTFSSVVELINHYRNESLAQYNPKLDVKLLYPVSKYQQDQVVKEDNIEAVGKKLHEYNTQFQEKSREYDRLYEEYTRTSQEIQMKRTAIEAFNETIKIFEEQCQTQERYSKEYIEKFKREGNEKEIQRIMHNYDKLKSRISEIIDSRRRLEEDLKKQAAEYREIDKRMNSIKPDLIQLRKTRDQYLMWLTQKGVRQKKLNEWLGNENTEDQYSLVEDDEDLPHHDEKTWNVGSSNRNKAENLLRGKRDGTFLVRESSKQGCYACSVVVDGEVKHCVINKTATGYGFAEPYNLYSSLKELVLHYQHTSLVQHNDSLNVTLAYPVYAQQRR
UniProt P35568: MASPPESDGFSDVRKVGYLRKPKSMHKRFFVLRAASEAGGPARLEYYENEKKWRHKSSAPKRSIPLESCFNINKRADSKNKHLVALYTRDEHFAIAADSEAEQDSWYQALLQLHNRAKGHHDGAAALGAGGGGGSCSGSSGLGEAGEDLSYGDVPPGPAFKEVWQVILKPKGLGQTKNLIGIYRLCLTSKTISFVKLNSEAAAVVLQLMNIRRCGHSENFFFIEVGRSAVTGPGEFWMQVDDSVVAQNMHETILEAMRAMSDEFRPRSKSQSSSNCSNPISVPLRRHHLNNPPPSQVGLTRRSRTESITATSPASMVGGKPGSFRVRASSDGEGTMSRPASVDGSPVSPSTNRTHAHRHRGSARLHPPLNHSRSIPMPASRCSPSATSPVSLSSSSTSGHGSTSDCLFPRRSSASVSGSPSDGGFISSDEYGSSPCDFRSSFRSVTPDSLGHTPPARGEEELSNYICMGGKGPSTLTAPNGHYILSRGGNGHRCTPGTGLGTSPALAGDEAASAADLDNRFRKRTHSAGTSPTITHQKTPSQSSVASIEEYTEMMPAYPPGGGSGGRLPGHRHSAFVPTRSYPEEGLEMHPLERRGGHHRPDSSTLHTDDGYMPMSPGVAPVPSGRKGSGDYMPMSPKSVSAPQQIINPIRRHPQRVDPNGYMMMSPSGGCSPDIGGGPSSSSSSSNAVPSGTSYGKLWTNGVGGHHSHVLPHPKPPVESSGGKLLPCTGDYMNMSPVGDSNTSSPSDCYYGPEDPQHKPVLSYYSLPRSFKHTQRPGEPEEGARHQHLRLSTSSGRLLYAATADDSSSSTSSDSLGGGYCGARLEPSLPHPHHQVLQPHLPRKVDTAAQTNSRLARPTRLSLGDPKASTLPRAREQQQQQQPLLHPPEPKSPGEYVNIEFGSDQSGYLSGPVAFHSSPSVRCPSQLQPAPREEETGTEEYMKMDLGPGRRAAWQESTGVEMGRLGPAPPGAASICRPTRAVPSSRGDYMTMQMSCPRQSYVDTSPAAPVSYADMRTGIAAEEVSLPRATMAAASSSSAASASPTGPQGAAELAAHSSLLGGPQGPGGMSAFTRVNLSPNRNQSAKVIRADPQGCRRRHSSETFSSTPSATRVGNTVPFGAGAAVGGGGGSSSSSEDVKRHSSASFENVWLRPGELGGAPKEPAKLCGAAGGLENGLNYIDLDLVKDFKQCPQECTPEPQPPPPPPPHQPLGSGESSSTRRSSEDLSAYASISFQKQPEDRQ

binding [1]: binds | binding [2]: binds
Substance: insulin receptor substrate (IRS-1) (from UniProt P35568 1-1242)

— US20090291088A1, “THERAPEUTIC COMBINATIONS OF ANTI-IGF-1R ANTIBODIES AND OTHER COMPOUNDS” (Biogen Idec MA Inc., priority 2008, published 2009)
